Data on one sequence can be found in PMC6836476.

Amino acid sequences for entries named in this document (tags omitted). A change or cut given only in a name is not applied to a line headed by its entry.
UniProt O88942: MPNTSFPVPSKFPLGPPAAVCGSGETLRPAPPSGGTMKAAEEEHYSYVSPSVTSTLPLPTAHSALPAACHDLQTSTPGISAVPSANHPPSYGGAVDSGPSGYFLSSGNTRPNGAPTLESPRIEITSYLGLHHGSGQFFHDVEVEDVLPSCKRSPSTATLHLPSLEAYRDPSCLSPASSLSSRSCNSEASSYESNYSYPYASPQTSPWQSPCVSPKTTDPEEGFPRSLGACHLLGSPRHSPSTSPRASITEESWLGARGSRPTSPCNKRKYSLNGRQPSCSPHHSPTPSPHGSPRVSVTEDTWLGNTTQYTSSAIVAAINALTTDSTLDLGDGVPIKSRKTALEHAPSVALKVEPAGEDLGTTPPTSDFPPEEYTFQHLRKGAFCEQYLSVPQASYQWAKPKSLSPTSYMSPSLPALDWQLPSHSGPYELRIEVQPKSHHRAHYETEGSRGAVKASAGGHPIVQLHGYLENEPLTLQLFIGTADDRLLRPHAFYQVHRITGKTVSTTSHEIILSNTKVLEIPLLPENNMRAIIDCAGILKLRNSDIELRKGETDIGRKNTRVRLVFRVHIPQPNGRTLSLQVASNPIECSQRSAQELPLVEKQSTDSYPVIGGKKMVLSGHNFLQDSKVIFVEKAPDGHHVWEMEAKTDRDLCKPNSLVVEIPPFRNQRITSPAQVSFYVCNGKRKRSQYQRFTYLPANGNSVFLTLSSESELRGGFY

For the series, the target named is NFATc1 (mouse) (UniProt O88942). Description: EMSA with supershift. The note with it: wild-type CD4+ T cells, CD3/CD28 stimulated overnight, supershift outcome itself not described in text; EMSA: binding buffer not specified, 5% polyacrylamide gel, 3x10^5 cpm probe; extract in 20 mM HEPES pH 7.9, 0.4 M NaCl, 1 mM EDTA, 1 mM EGTA, 1 mM DTT; protein in an extract; label: 32P.

Construct, isoform or probe ends are uncertain for at least one entry. At least one result comes from cells or an extract, where the contact may be indirect. At least one verdict rests on a figure or table, not on a statement of the authors.

As to “GCCCAAAGAGGAAAATTTGTTTCATACAG (double strand) [NFAT probe (IL-2 promoter-derived)]”, the binding result is given as “binds”.
